{"source": "PubChem BioAssay AID1259254 – NCATS, 2017", "screen": "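Genome-wide screen for genes that prevent DNA re-replication in cancer cells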 (primary screen)", "cells": "human HCT116 colorectal cancer cells", "reagent": "single siRNA against human genes", "duration": "3 days", "detection": "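Nuclei stained with Hoechst and imaged; cell-cycle phase assigned by DNA content; G2 share scaled per plate, non-targeting siRNA 0%, GMNN siRNA 100%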", "reading the numbers": "G2 robust z-score and G2 cells, % of GMNN control: higher = more G2 cells, more excess DNA replication", "hit rule": "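An siRNA counts as active if its G2 robust z-score lies at least 5 MADs above the screen median; here such calls match roughly 38% of GMNN control or more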", "note": "This is one part, drawn at random, of about 59,000 reagents tested. About 1,550 of all reagents (2.6%) count as active. 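G2 share is only a proxy for re-replication; each gene was hit by three separate siRNAs, and active genes were retested.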 A number with no mark means an inactive call. The numbers tell different reagents against one gene apart. Further read-outs or replicates are left out here. Not given: the amount of reagent."}
{"gene symbol": "TRAPPC13P1", "reagent no.": 1, "G2 robust z-score": 3.3, "G2 cells, % of GMNN control": 26.2}
{"gene symbol": "TRAPPC13P1", "reagent no.": 2, "G2 robust z-score": 0.0366, "G2 cells, % of GMNN control": 3.22}
{"gene symbol": "TRAPPC13P1", "reagent no.": 3, "G2 robust z-score": 3.02, "G2 cells, % of GMNN control": 24.2}
{"gene symbol": "PRCP", "reagent no.": 1, "G2 robust z-score": 1.53, "G2 cells, % of GMNN control": 13.7}
{"gene symbol": "PRCP", "reagent no.": 2, "G2 robust z-score": 0.298, "G2 cells, % of GMNN control": 5.06}
{"gene symbol": "PRCP", "reagent no.": 3, "G2 robust z-score": -0.599, "G2 cells, % of GMNN control": -1.25}

Copied from above for reference:
{"gene symbol": "PRCP", "reagent no.": 1, "G2 robust z-score": 1.53, "G2 cells, % of GMNN control": 13.7}
{"gene symbol": "PRCP", "reagent no.": 2, "G2 robust z-score": 0.298, "G2 cells, % of GMNN control": 5.06}

Additional entries follow:
{"gene symbol": "SMIM10L2A", "reagent no.": 1, "G2 robust z-score": 2.7, "G2 cells, % of GMNN control": 22}
{"gene symbol": "SMIM10L2A", "reagent no.": 2, "G2 robust z-score": 0.323, "G2 cells, % of GMNN control": 5.24}
{"gene symbol": "SMIM10L2A", "reagent no.": 3, "G2 robust z-score": 0.362, "G2 cells, % of GMNN control": 5.51}
{"gene symbol": "GSTP1", "reagent no.": 1, "G2 robust z-score": 2.23, "G2 cells, % of GMNN control": 18.7}
{"gene symbol": "GSTP1", "reagent no.": 2, "G2 robust z-score": -0.446, "G2 cells, % of GMNN control": -0.17}
{"gene symbol": "GSTP1", "reagent no.": 3, "G2 robust z-score": -0.712, "G2 cells, % of GMNN control": -2.05}
